39 compounds from the supplement of paper PMC11348887 can be followed below.

Structures can show the parent of a compound that is named as a salt. The list shows a part of the results. Most values lie at the level of the controls, where differences are scatter. *1 amine or outer side, *2 acyl side, *3 side chain or, on linkers, in order; H or OH if unused. Where a SMILES comes first, the peptide text is derived from it. Bridges are numbered along the chain shown (N, C = ends). [ ]: non-standard residue; d: D form. The star is where a group is joined. hTyr(3S-OH,4S-OH,3'-OSO3H) = N[C@H](C(=O)O)[C@H](O)[C@@H](O)c1ccc(O)c(OS(=O)(=O)O)c1; Orn(4R-OH,5R-OH) = O=C([C@H](C[C@@H](O)[C@@H](O)N[*:3])N[*:1])[*:2]; Pro(3S-OH,4S-Me) = C[C@H]1CN[C@H](C(=O)O)[C@H]1O; X3 = CCCCCOc1ccc(-c2cc(-c3ccc(C(=O)*)cc3)no2)cc1; Gln(3R-OH) = NC(=O)C[C@@H](O)[C@H](N)C(=O)O; Hyp = O=C(O)[C@@H]1C[C@@H](O)CN1

For the first experiment, the system named is hPSC-derived cortical neurons (WA09). Put plainly: nucleus area z-score vs screen plate; higher = larger nuclei (more mature). The note with it: 5 µM; treatment: days 7-14 after plating, readout day 21.
As to `S=c1[nH]cnc2nc[nH]c12` [Mercaptopurine (6-MP)], the nucleus area z-score is -1.55.
Still for that read-out and setting: under `COc1ccc(C2CNC(=O)C2)cc1OC1CCCC1` (stereo unspecified) [Rolipram] stands 0.0448; under `Cc1ccc(S(=O)(=O)Cc2nc(-c3ccc(C(=O)NCc4cccnc4)cc3)oc2C)cc1`, -13.8; under `C=C1CC[C@H](O)C/C1=C/C=C1\CCC[C@]2(C)[C@@H]([C@H](C)/C=C/[C@H](C)C(C)C)CC[C@@H]12` [Vitamin D2], 0.89.
Still for that read-out and setting: under `NC[C@H]1O[C@H](O[C@H]2[C@H](O)[C@@H](O[C@H]3O[C@H](CO)[C@@H](O)[C@H](N)[C@H]3O)[C@H](N)C[C@@H]2N)[C@H](N)C[C@@H]1O` [Tobramycin] stands 0.275; under `CN(C(=O)c1ccc(F)cc1C(F)(F)F)C1CCN(c2nnc(-c3ccnn3C)c3ccccc23)CC1`, -0.46; under `CC1(C)S[C@@H]2[C@H](NC(=O)[C@H](N)c3ccc(O)cc3)C(=O)N2[C@H]1C(=O)O` [Amoxicillin Sodium], 2.11.

Another experiment shares this test system. Put plainly: total neurite length per nucleus (MAP2) z-score; higher = more neurite growth. The settings on record: 5 µM; treatment: days 7-14 after plating, readout day 21.
Take `O=C(O)c1cccnc1Nc1cccc(C(F)(F)F)c1` [Niflumic acid]: the “total neurite length per nucleus (z-score)” value is -0.15.
Same read-out and setting: the value for `CC(=O)Oc1ccc(C(c2ccc(OC(C)=O)cc2)c2ccccn2)cc1` [Bisacodyl] was -0.302; that for `C[C@H]1Oc2cc(cnc2N)-c2c(nn(C)c2C#N)CN(C)C(=O)c2ccc(F)cc21` was 1.93.
The same measure, in the same setting: under `O=C(Nc1cccc(Nc2ncc(Br)c(NCCc3cnc[nH]3)n2)c1)N1CCCC1` stands 0.578; under `Cc1c(-c2ccc(O)cc2)n(Cc2ccc(OCCN3CCCCCC3)cc2)c2ccc(O)cc12` [Bazedoxifene Acetate], -5.92; under `CN1CCC(CNc2ccc3ncc(-c4cccc(OC(F)(F)F)c4)n3n2)CC1` [SGI-1776 free base], -3.87.
Same read-out and setting: under `Nc1ccn([C@@H]2O[C@H](CO)[C@@H](O)C2(F)F)c(=O)n1` [Gemcitabine HCl] stands -1.13; under `Nc1ccc(S(=O)(=O)c2ccc(N)cc2)cc1` [Dapson], 0.875; under `CCOC(=O)[C@H](CCc1ccccc1)N[C@@H](C)C(=O)N1C(=O)N(C)C[C@H]1C(=O)O` [Imidapril HCl], 2.13.
Take `COc1ccc(N2C(=O)/C(=C\c3ccc([N+](=O)[O-])s3)SC2=S)cc1`: the “total neurite length per nucleus (z-score)” value is -0.384.
The same measure, in the same setting: under `COc1cc(C(C)=O)ccc1O` [Apocynin] stands 0.343; under `O=C(O)c1cc(=O)[nH]c(=O)[nH]1` [Orotic acid (6-Carboxyuracil)], 0.21.
Still for that read-out and setting: the value for `C[C@@H](NC(=O)c1ncnc(N)c1Cl)c1ncc(C(=O)Nc2cc(C(F)(F)F)c(Cl)cn2)s1` was 0.712; that for `O=C(Nc1ccc(S(=O)(=O)Nc2ccccc2Cl)c(Cl)c1)c1ccccn1` was -0.609; that for `CN(C)CCC[C@@]1(c2ccc(F)cc2)OCc2cc(C#N)ccc21` [Escitalopram Oxalate] was -0.217.
Regarding `C[C@H](CCC(=O)NCCS(=O)(=O)O)[C@H]1CC[C@H]2[C@@H]3[C@@H](O)C[C@@H]4C[C@H](O)CC[C@]4(C)[C@H]3CC[C@]12C` [Sodium Tauroursodeoxycholate (TUDC)], the “total neurite length per nucleus (z-score)” value is 1.15.
Same read-out and setting: under `Nc1cccc2c1CN(C1CCC(=O)NC1=O)C2=O` (stereo unspecified) [Lenalidomide (CC-5013)] stands 0.161; under `C[C@H]1[C@H](OC(=O)CCC(=O)O)O[C@@H]2O[C@@]3(C)CC[C@H]4[C@H](C)CC[C@@H]1[C@@]24OO3` [Artesunate], -0.533.
Still for that read-out and setting: under `NC(=O)N1c2ccccc2C=Cc2ccccc21` [Carbamazepine] stands 0.0584.
For `COc1ccc(CCc2nc3cc(-c4c(C)noc4C)ccc3n2C[C@H](C)N2CCOCC2)cc1Cl`, the “total neurite length per nucleus (z-score)” value stood at 1.75.
`CCS(=O)(=O)c1cccc(-c2cc(C(=O)NC3CCN(C)CC3)c(C)c3[nH]c4ncc(C)cc4c23)c1`: the “total neurite length per nucleus (z-score)” value is -5.86.
`CC(C)(C)c1ccc(S(=O)(=O)NCc2ccc(C(=O)Nc3cccnc3)cc2)cc1`: the “total neurite length per nucleus (z-score)” value was -0.489.
The same measure, in the same setting: under `C=CC(=O)Nc1ccc2ncnc(Nc3cccc(Br)c3)c2c1` stands -0.299.
Still for that read-out and setting: under `CC(=O)O[C@H]1Cc2ccccc2N(C(N)=O)c2ccccc21` [Eslicarbazepine Acetate] stands 0.672; under `O=C(O)CCc1nc2ccccc2[nH]1` [Procodazole], 0.339.
For the compound `O=C(O)c1ccccc1Nc1cccc(C(F)(F)F)c1` [Flufenamic acid], the “total neurite length per nucleus (z-score)” value was found to be 0.0576.
Still for that read-out and setting: the value for `O=C(Nc1ccccc1)Nc1ccc(-c2ccc(C(=O)[C@@H]3CCC[C@H]3C(=O)O)cc2)cc1` was -0.324.
For `CCCCCOc1ccc(-c2cc(-c3ccc(C(=O)N[C@H]4C[C@@H](O)[C@@H](O)NC(=O)[C@@H]5[C@@H](O)[C@@H](C)CN5C(=O)[C@H]([C@H](O)CC(N)=O)NC(=O)[C@H]([C@H](O)[C@@H](O)c5ccc(O)c(OS(=O)(=O)O)c5)NC(=O)[C@@H]5C[C@@H](O)CN5C(=O)[C@H]([C@@H](C)O)NC4=O)cc3)no2)cc1` [Micafungin Sodium] (X3-[Orn(4R-OH,5R-OH)]T[Hyp][hTyr(3S-OH,4S-OH,3'-OSO3H)][Gln(3R-OH)][Pro(3S-OH,4S-Me)]; lactam 1-C), the “total neurite length per nucleus (z-score)” value is 0.0286.
Same read-out and setting: the value for `CC(C)(C)c1cc(C(C)(C)C)c(NC(=O)c2c[nH]c3ccccc3c2=O)cc1O` [Ivacaftor (VX-770)] was 0.118; that for `O=C(COc1cccc2c(=O)[nH]ccc12)c1ccccc1` was 0.86; that for `O=C(O)CC[C@H]1CC[C@@](c2cc(F)ccc2F)(S(=O)(=O)c2ccc(Cl)cc2)CC1` was -0.42.
On the same count and under the same terms, the value for `CCNC(=O)[C@H]1O[C@@H](n2cnc3c(N)nc(NCCc4ccc(CCC(=O)O)cc4)nc32)[C@H](O)[C@@H]1O` was -0.0349; that for `S=c1[nH]cnc2nc[nH]c12` [Mercaptopurine (6-MP)] was 2.36.
On the same count and under the same terms, the value for `COc1ccc(C2CNC(=O)C2)cc1OC1CCCC1` (stereo unspecified) [Rolipram] was -0.0605; that for `Cc1ccc(S(=O)(=O)Cc2nc(-c3ccc(C(=O)NCc4cccnc4)cc3)oc2C)cc1` was -4.26.
For `C=C1CC[C@H](O)C/C1=C/C=C1\CCC[C@]2(C)[C@@H]([C@H](C)/C=C/[C@H](C)C(C)C)CC[C@@H]12` [Vitamin D2], the “total neurite length per nucleus (z-score)” value was found to be 0.0584.
On the same count and under the same terms, under `NC[C@H]1O[C@H](O[C@H]2[C@H](O)[C@@H](O[C@H]3O[C@H](CO)[C@@H](O)[C@H](N)[C@H]3O)[C@H](N)C[C@@H]2N)[C@H](N)C[C@@H]1O` [Tobramycin] stands -0.496; under `CN(C(=O)c1ccc(F)cc1C(F)(F)F)C1CCN(c2nnc(-c3ccnn3C)c3ccccc23)CC1`, 1.82; under `CC1(C)S[C@@H]2[C@H](NC(=O)[C@H](N)c3ccc(O)cc3)C(=O)N2[C@H]1C(=O)O` [Amoxicillin Sodium], -0.105.
